Values from PubChem BioAssay AID1671195 (Yale University, 2021).

Aim: 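Knockdowns that increase or decrease uptake of fluorescent LDL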 (primary screen)
System: human Huh7 hepatoma cells
Reagents: siRNA pool against human genes, 18 nM
Time to read-out: about 2 to 2.5 days of knockdown, then 8 h LDL uptake
Conditions: DiI-labelled LDL at 30 µg/ml for 8 h, in lipoprotein-deficient serum medium
Measured: 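Fluorescent LDL signal imaged in cells, scaled to the plate median, robust z-score for each replicate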
Scale: robust z-score: higher = more LDL uptake after knockdown
Call rule: 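a gene counts as active if at least two replicate z-scores exceed ±2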
Shown is one part, drawn at random, of about 22,000 reagents tested. Over the whole deposit, about 1,510 (6.9%) are marked active. 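Active includes knockdowns raising or lowering LDL uptake; positive z-scores mean more uptake, negative mean less.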

| robust z-score, replicate 1 | robust z-score, replicate 2 | robust z-score, replicate 3 | Call | Target gene |
| --- | --- | --- | --- | --- |
| 0.181 | -0.398 | -0.319 | inactive | CHCHD5 (GeneID 84269) |
| 0.804 | 2.63 | 1.44 | inactive | ADAR (GeneID 103) |
| 0.106 | -0.548 | -0.593 | inactive | GANAB (GeneID 23193) |
| -1.77 | 0.29 | -1.45 | inactive | PRF1 (GeneID 5551) |
| 1.14 | 1.45 | 1.22 | inactive | TMEM164 (GeneID 84187) |
| -1.31 | -0.096 | -1.59 | inactive | WNT3 (GeneID 7473) |
| -0.867 | -1.07 | -0.347 | inactive | RPP25L (GeneID 138716) |
| -0.00588 | -0.162 | 0.311 | inactive | DSC2 (GeneID 1824) |
| -0.655 | -1.18 | -1.2 | inactive | GID4 (GeneID 79018) |
| -0.321 | -0.864 | -0.34 | inactive | ZBED8L (GeneID 221786) |
| -0.115 | 0.334 | -0.194 | inactive | OLFM4 (GeneID 10562) |
| 0.595 | 0.492 | 0.742 | inactive | CD5 (GeneID 921) |
| -0.411 | -0.886 | -0.467 | inactive | NUAK1 (GeneID 9891) |
| -0.142 | 0.673 | -0.354 | inactive | IDI2 (GeneID 91734) |
| 0.145 | -0.67 | -0.498 | inactive | LOC391353 (retired record) (GeneID 391353) |
| 2.83 | 2.17 | 2.52 | active | SMIM20 (GeneID 389203) |
| 0.137 | -0.11 | -0.638 | inactive | SKAP1 (GeneID 8631) |
| -0.283 | -0.276 | -0.506 | inactive | NCR1 (GeneID 9437) |
| 0.871 | 1.05 | 1.09 | inactive | TAS2R31 (GeneID 259290) |
| -0.495 | 0.736 | 0.775 | inactive | VAV2 (GeneID 7410) |
| 1.23 | 2.32 | 1.55 | inactive | STOM (GeneID 2040) |
| -0.328 | 0.0478 | -0.623 | inactive | CDT1 (GeneID 81620) |
| 1.77 | 0.84 | 0.559 | inactive | RPH3A (GeneID 22895) |
| 1.21 | 0.547 | 0.32 | inactive | DENND2A (GeneID 27147) |
| 7.21 | 8.36 | 6.92 | active | CACNA1I (GeneID 8911) |
| -0.122 | -0.575 | 0.23 | inactive | SSTR1 (GeneID 6751) |
| -2.05 | -2.35 | -2.02 | active | COPB1 (GeneID 1315) |
| -0.991 | -0.229 | 0.0852 | inactive | NRIP3 (GeneID 56675) |
| -1.9 | -1.2 | -1.83 | inactive | TNNC2 (GeneID 7125) |
| 0.452 | -1.69 | -3.03 | inactive | SLC25A22 (GeneID 79751) |
| 1.28 | 0.661 | 0.383 | inactive | DHX30 (GeneID 22907) |
| 1.74 | 2.08 | 1.91 | active | OLFML1 (GeneID 283298) |
| 2.24 | 2.88 | 2.7 | active | ZNF521 (GeneID 25925) |
| -1.4 | -1.31 | -0.298 | inactive | WHRN (GeneID 25861) |
| 0.352 | -1.12 | -0.504 | inactive | AMH (GeneID 268) |
| 0.938 | 1.43 | 1.4 | inactive | LOC400551 (retired record) (GeneID 400551) |
| -0.0902 | -0.263 | -0.569 | inactive | AGAP11 (GeneID 119385) |
| 1.09 | 0.128 | 1.34 | inactive | CD24 (GeneID 100133941) |
| 0.0182 | 0.263 | 0.129 | inactive | MIR100HG (GeneID 399959) |
| 1.15 | 0.332 | 0.665 | inactive | CACNA1D (GeneID 776) |
| 0.49 | -1.66 | -0.651 | inactive | STRBP (GeneID 55342) |
| 1.24 | 0.889 | 0.546 | inactive | LOC440549 (retired record) (GeneID 440549) |
| -0.799 | -0.973 | -1 | inactive | SKA1 (GeneID 220134) |
| 0.192 | -0.0307 | 0.0828 | inactive | ZFPM2 (GeneID 23414) |
| 0.818 | 0.922 | 0.69 | inactive | COX4I1P1 (GeneID 122867) |
| 1.39 | 0.75 | -0.36 | inactive | UTP14C (GeneID 9724) |
| 0.227 | 0.474 | -0.0473 | inactive | LOC388898 (retired record) (GeneID 388898) |
| 0.99 | 1.05 | -0.306 | inactive | CRK (GeneID 1398) |
| -0.106 | -1.21 | -1.31 | inactive | EXOC3L4 (GeneID 91828) |
| 0.0632 | 0.149 | 0.0685 | inactive | ZNF552 (GeneID 79818) |
| 0.752 | -0.341 | 0.777 | inactive | ATP12A (GeneID 479) |
| -0.0354 | 1.25 | 1.18 | inactive | LOC139263 (retired record) (GeneID 139263) |
| 0.126 | 0.424 | 0.659 | inactive | EPG5 (GeneID 57724) |
| -0.954 | -0.154 | -0.692 | inactive | PDE6D (GeneID 5147) |
| -0.648 | -1.04 | -1.01 | inactive | LOC440803 (retired record) (GeneID 440803) |
| -0.846 | -1.41 | -0.878 | inactive | LOC441343 (retired record) (GeneID 441343) |
| 0.0334 | 0.439 | -0.119 | inactive | GALNT14 (GeneID 79623) |
| 0.182 | 1.12 | 0.0508 | inactive | RAB6C (GeneID 84084) |
| -0.364 | 0.162 | 0.379 | inactive | GSTM1 (GeneID 2944) |
| -0.259 | -0.449 | -0.293 | inactive | RPL31P28 (GeneID 442217) |
| 1.12 | 1.56 | 0.0326 | inactive | CDR2L (GeneID 30850) |
| -0.711 | -1.11 | -0.729 | inactive | MAP2K4 (GeneID 6416) |
| 0.542 | 0.691 | 0.782 | inactive | ZNF562 (GeneID 54811) |
| 0.37 | 1.02 | 0.975 | inactive | C2orf42 (GeneID 54980) |
| -0.0286 | -0.62 | 0.0437 | inactive | ADSS1 (GeneID 122622) |
| 0.385 | 0.365 | 0.00887 | inactive | LOC389204 (retired record) (GeneID 389204) |
| -0.437 | -0.0215 | -0.35 | inactive | IL1RAPL2 (GeneID 26280) |
| -0.735 | 1.8 | -0.902 | inactive | PRH2 (GeneID 5555) |

Entries listed so far with an active call (5):
| robust z-score, replicate 1 | robust z-score, replicate 2 | robust z-score, replicate 3 | Call | Target gene |
| --- | --- | --- | --- | --- |
| 2.83 | 2.17 | 2.52 | active | SMIM20 (GeneID 389203) |
| 7.21 | 8.36 | 6.92 | active | CACNA1I (GeneID 8911) |
| -2.05 | -2.35 | -2.02 | active | COPB1 (GeneID 1315) |
| 1.74 | 2.08 | 1.91 | active | OLFML1 (GeneID 283298) |
| 2.24 | 2.88 | 2.7 | active | ZNF521 (GeneID 25925) |
